Experimental data published in publication PMC10114474.
These are yes or no findings as the source states them, for the method shown. In cells and extracts the contact can be indirect. Some results given as binding are weak or reduced against the parent protein; the word gives no strength.

Target: T1, carbohydrate sulfotransferase 11 (CHST11) (human (endogenous in OCI-LY1 and U2932)) (UniProt Q9NPF2)
T1 sequence: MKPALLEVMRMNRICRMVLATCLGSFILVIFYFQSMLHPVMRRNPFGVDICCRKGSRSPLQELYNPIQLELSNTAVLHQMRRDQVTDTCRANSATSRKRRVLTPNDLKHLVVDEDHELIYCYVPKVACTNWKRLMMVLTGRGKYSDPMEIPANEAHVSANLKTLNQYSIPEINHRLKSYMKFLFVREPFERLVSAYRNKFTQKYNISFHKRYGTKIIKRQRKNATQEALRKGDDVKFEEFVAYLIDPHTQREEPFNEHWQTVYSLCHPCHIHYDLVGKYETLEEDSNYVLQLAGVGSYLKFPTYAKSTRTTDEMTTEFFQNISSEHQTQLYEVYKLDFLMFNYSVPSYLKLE
Experiment: co-IP; endogenous proteins; DLBCL cells (OCI-LY1, U2932) lysed in RIPA buffer with protease inhibitors; lysate incubated overnight with 2 µg antibody, normal IgG as negative control; Protein A/G Plus-agarose beads 4 h at 4 °C; western blotting

- binding: binds
B1: MOB1B (protein, UniProt Q7L9L4 1-216)
chain: MSFLFGSRSSKTFKPKKNIPEGSHQYELLKHAEATLGSGNLRMAVMLPEGEDLNEWVAVNTVDFFNQINMLYGTITDFCTEESCPVMSAGPKYEYHWADGTNIKKPIKCSAPKYIDYLMTWVQDQLDDETLFPSKIGVPFPKNFMSVAKTILKRLFRVYAHIYHQHFDPVIQLQEEAHLNTSFKHFIFFVQEFNLIDRRELAPLQELIEKLTSKDR
